Measurements taken from patent publication US9750805B2, “Calcium flux agonists and methods therefor” (Nant Holdings IP, LLC, priority 2012, dated 2017).
For some assays here: At least one structure is not confirmed: it was looked up by name or label, or the drawing left a doubt. Some results were stated once for a whole list of compounds, not compound by compound.

Legend:
Assay type in all cases: cell-based, human
[1] = tested on: TLR2 ligand response of THP-1 promonocytic leukemia cell line; assay: IL-8 release with TLR2 ligand plus suboptimal calcium flux agonist (FIG. 2); conditions: THP-1 cells with Pam2CYS; suboptimal dose 20 nM thapsigargin, 316 nM A23187, 1 μM ionomycin
Procedure: (§1) For example, human promonocytic THP-1 cells were incubated in the presence or absence of a suboptimal dose of the TLR2 ligand Pam2CSK4 and compared to similarly treated cells which also received suboptimal doses of ionophore (here: A23187 and ionomycin). […] In another example, NF-κB THP-1 cells (a THP-1-derived transfectant line harboring an NF-κB-driven luciferase expression cassette) were cultivated in the presence or absence of a suboptimal dose of the TLR2 ligand Pam2CSK4 and compared to similarly treated cells that also received suboptimal doses of various SERCA inhibitors.
Here, the ionophores A23187 and ionomycin, as well as the SERCA inhibitor thapsigargin synergize with the TLR2 ligand (Pam2CYS) in the activation of cytokine release from the human THP-1 promonocytic leukemia cell line. It should be especially noted that while the TLR2 ligand alone provided for about 5 ng/ml IL-8 response, addition of a suboptimal dose of the calcium flux agonists (e.g. 20 nM for thapsigargin, 316 nM for A23187, and 1 μM for ionomycin) produced more than 10-fold quantities of IL-8 production in the cells.

[2] = tested on: TLR (TLR2, TLR4, TLR5, TLR9) and NOD (NOD1, NOD2) family members; assay: IL-8 production with TLR and NOD ligands plus suboptimal calcium flux agonist (FIGS. 3A-3E); conditions: suboptimal doses: 20 nM thapsigargin, 316 nM A23187, 1 μM ionomycin, 10 μM cyclopiazonic acid, 31.6 μM DBHQ
Procedure: To investigate if that observation was also true for other pattern recognition receptors, and especially for TLR and NOD receptors and other ligands, the inventors tested numerous TLR and NOD receptors and various ligands.
The doses used in this experiment were 20 nM for thapsigargin, 316 nM for A23187, 1 μM for ionomycin, 10 μM for cyclopiazonic acid, and 31.6 μM for DBHQ.
Thus, a clear pattern of adjuvant activity of calcium flux agonists on the immune response, and especially on IL-8 production and NF-κB signaling is evident where the immune response is associated with a TLR- or NOD-mediated event.

[3] = tested on: NF-κB THP-1 cells; assay: NF-κB luciferase reporter synergy with TLR2 ligand and effect of Ca2+ modulating compounds (FIG. 4); conditions: suboptimal doses of SERCA inhibitors, beyond cumulative individual responses (synergy)
Procedure: as §1
The inventors further investigated if the nature of calcium flux was of significance as increased intracellular calcium may have different origins. To that effect, the inventors used various calcium signaling modulators to investigate the nature of the calcium flux and contribution. As can be readily taken from the data shown, extracellular calcium flux into the cell was critical for synergistic amplification of calcium signaling. More specifically, FIG. 4 illustrates the effects of different Ca^2+ modulating compounds on synergy with respect to NF-κB activation.

Structure (SMILES) | IL-8 production relative to TLR2 ligand alone [1] | effect on IL-8 production with TLR and NOD ligands [2] | amount of luciferase produced with suboptimal TLR2 ligand Pam2CSK4 [3]
C[C@H](CCC(=O)O)C[C@H](C)C[C@H](C)C(=O)/C=C(\O)[C@H](C)C[C@H](C)C/C=C/[C@@H](C)[C@@H](O)[C@@H](C)[C@@H](O)C[C@@H]1CC[C@@](C)([C@H]2CC[C@@](C)([C@@H](C)O)O2)O1 [ionomycin] | more than 10 fold |  | 
CC(=O)C1=C(O)[C@@H]2[C@H]3c4c[nH]c5cccc(c45)C[C@H]3C(C)(C)N2C1=O [cyclopiazonic acid] |  | synergistic effect | significantly increased
CNc1ccc2oc(C[C@H]3O[C@@]4(CC[C@H]3C)O[C@H]([C@H](C)C(=O)c3ccc[nH]3)[C@H](C)C[C@H]4C)nc2c1C(=O)O [A23187, calcimycin] | more than 10 fold |  | 
C/C=C(/C)C(=O)O[C@H]1C(C)=C2[C@H]([C@@H]1OC(=O)CCCCCCC)[C@@](C)(OC(C)=O)C[C@H](OC(=O)CCC)[C@@]1(O)[C@H]2OC(=O)[C@@]1(C)O [thapsigargin] | more than 10 fold |  | 
